PubChem BioAssay AID1508588, Peter MacCallum Cancer Centre | 2020
The deposit covers about 18,000 reagents; this is an unselected part. 790 of them (4.4%) were called active. 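Calls rest on a combination of fold-change classes in drug and vehicle arms, not all shown here.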 Unmarked entries are inactive.

- Purpose: 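Which gene losses make BRAF-mutant melanoma cells more responsive to vemurafenib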 (primary screen)
- Cells: human WM266.4 melanoma cells (BRAF V600 mutant)
- Knock-down reagent: siRNA pool against human genes, 40 nM
- Time to read-out: 96 h from transfection to read-out
- Treatment: vemurafenib 300 nM (about IC25), added 48 h after transfection, for 48 h; comparison arm got DMSO vehicle only
- Detection: 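Ratios to non-targeting siRNA for cell gain, counted as DAPI nuclei after minus before drug and averaged over two replicates, and for absorbance-read medium lactate per cell; both binned into fold-change classes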
- Reading the numbers: cell gain with vemurafenib: higher = more cell gain than with non-targeting siRNA; lactate per cell with vemurafenib: higher = more lactate made per cell
- Active means: 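Enhancement is called by pairing each knock-down's vehicle-arm and drug-arm fold-change classes for viability or glycolysis; which class combinations qualify is not given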
- Meaning of the calls: active = enhances vemurafenib effect; inactive = no enhancement seen

Target gene | cell gain with vemurafenib | lactate per cell with vemurafenib
NDUFAF6 | 0.96 | 1
GRAMD1A | 0.65 | 1.36
GCM2 | 0.47 | 1.33
ZNF439 | 0.31 | 0.42
PYGM | 0.6 | 1.02
TBP | 0.48 | 0.9
INSL4 | 0.73 | 1.96
OR4K5 | 0.44 | 0.52
LAG3 | 0.68 | 1.44
IKZF4 | 0.33 | 0.62
CENPH | 0.4 | 1.29
DCPH1 | -0.27 | 1.7
KCNIP1 | 1.27 | 0.77
GRAMD2A | 0.73 | 0.62
SCN3A | 0.5 | 0.6
INSL3 | 0.32 | 1.21
SIK2 | 0.29 | 1.67
TNFSF8 | 0.31 | 1.31
C1GALT1 | 0.46 | 1.16
PTGES3 | 0.88 | 1.08
RSAD1 | 0.7 | 0.55
SCG5 | 0.72 | 0.89

The list goes on, starting with the last 4 of the part before.
Target gene | cell gain with vemurafenib | lactate per cell with vemurafenib
C1GALT1 | 0.46 | 1.16
PTGES3 | 0.88 | 1.08
RSAD1 | 0.7 | 0.55
SCG5 | 0.72 | 0.89
PACC1 | 0.57 | 0.78
RIC1 | 0.88 | 0.88
SLC7A11 | 0.69 | 0.99
RBMY1F | 0.43 | 0.84
CER1 | 1.1 | 0.8
MYD88 | 0.58 | 1.02
RGPD2 | 0.69 | 0.23
STX19 | 0.35 | 1.37
SAA4 | 0.7 | 0.6
ITPRIPL2 | 0.53 | 0.56
SIDT2 | 1.03 | 0.59
DOT1L | 0.68 | 1.09
